Measurements published in paper PMC6531493.
Results are given in words; binding and its absence hold for the method and conditions named. In cells and extracts the contact can be indirect. Some results given as binding are weak or reduced against the parent protein; the word gives no strength.

Sequences of proteins named here, by UniProt entry; tags and fusion partners are left off. A change or cut given only in a name is not applied to a line headed by its entry. A line that says so, or that is headed by a name, gives the form on record, which may keep a tag or linker. Residues count along the entry.
UniProt Q15910: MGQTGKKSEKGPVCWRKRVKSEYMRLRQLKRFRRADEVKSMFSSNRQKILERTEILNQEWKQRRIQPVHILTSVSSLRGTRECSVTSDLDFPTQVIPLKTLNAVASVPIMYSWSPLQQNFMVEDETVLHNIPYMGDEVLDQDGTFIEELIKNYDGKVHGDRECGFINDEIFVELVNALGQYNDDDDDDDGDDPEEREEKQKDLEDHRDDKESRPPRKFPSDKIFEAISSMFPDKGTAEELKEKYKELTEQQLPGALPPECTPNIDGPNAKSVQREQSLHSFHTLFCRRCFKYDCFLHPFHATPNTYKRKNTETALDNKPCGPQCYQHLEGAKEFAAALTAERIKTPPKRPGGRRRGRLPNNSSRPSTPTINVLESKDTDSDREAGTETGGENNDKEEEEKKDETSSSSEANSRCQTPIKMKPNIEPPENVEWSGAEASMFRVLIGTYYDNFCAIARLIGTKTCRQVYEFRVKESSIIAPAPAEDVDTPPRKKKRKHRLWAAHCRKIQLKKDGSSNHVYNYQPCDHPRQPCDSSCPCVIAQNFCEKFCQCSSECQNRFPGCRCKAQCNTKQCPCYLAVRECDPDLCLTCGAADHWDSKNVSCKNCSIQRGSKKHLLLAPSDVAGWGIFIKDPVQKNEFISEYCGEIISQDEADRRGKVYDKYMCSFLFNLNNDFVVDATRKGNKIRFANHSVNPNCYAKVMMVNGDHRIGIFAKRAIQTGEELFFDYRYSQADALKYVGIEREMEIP
Lamin A/C (wild type) (P02545, residues 1-646): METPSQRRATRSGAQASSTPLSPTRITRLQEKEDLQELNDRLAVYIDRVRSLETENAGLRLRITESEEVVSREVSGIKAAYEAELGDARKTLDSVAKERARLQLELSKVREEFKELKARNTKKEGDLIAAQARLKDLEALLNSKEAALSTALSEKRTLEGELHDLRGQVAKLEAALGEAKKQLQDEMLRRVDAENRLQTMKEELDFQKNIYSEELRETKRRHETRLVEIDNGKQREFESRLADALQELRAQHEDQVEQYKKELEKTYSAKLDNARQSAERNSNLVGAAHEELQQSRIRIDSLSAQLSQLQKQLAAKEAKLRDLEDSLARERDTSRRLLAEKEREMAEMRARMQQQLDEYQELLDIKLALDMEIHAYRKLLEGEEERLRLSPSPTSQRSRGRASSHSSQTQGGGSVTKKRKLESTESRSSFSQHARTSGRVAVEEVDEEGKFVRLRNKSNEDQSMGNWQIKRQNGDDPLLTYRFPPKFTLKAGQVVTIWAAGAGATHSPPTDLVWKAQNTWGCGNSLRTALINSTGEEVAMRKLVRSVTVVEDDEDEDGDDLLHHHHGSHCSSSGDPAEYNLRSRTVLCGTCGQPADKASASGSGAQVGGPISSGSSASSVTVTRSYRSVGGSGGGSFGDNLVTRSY
K219T-Lamin A/C (P02545, form named): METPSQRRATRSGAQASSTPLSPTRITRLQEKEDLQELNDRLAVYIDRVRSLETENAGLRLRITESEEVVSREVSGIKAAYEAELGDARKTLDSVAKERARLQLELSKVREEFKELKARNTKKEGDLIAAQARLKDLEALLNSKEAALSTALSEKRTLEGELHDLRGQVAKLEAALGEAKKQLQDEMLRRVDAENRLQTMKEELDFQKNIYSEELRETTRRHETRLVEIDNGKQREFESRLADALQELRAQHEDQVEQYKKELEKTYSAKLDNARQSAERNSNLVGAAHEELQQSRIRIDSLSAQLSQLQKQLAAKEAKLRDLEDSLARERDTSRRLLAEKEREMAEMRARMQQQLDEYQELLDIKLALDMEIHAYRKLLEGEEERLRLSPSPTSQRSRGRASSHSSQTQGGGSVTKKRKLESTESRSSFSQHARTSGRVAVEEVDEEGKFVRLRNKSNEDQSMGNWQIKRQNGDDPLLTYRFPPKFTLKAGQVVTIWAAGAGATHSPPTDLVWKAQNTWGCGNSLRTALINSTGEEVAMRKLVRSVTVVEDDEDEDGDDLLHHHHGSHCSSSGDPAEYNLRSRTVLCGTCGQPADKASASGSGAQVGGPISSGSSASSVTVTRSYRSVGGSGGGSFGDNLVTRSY

Target: Ezh2 (Enhancer of zeste homolog 2, the catalytic subunit of PRC2) (human (endogenous in iPSC-derived cardiomyocytes)) (UniProt Q15910)
Experiment: co-IP; endogenous Lamin A/C and Ezh2 in CNTR-CMs and K219T-CMs; an unrelated IgG antibody as negative control; performed as in ref. 51, detailed protocol in the Supplementary Methods

binding	Substance
binds	K219T-Lamin A/C (from UniProt P02545 1-646)
binds	Lamin A/C (wild type) (from UniProt P02545 1-646)
